PubChem BioAssay AID743121 – NCATS – 2013

Screen: 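Genes whose silencing strengthens cell killing by camptothecin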 (primary screen)
Cells: MDA-MB-231 cells, a human breast cancer line
Knock-down reagent: single siRNA against human genes, 20 nM siRNA (0.8 pmol per well)
Duration: 120 h (drug added 48 h after transfection, read 72 h later)
Challenge: camptothecin 20 nM (about EC30) for 72 h; vehicle 0.1% DMSO in parallel plates
Read-out: 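Cell viability by ATP luminescence (CellTiter-Glo) as % of non-targeting siRNA wells, and the log2 ratio of viability without drug over viability with camptothecin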
Direction: log2 vehicle/camptothecin viability: higher = stronger sensitisation to camptothecin; viability with camptothecin and viability without drug: higher = more viable cells
Hit rule: 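Active genes have an RSA gene-level p-value below 0.001, computed from the ratios of their separate siRNAs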
This is one part, drawn at random, of about 26,000 reagents tested. 167 of all reagents (0.63%) were called active. 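Calls are per gene from RSA p-values that are not deposited; an individual active-marked siRNA can sensitise only weakly.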 Entries without a mark were called inactive. The numbers tell different reagents against one gene apart. No sequences are given here.

target | reagent no. | log2 vehicle/camptothecin viability | viability with camptothecin (% of control) | viability without drug (% of control)
CYP2B6 | 1 | -0.477 | 40 | 28.7
CYP2B6 | 2 | -0.388 | 58.7 | 44.8
CYP2B6 | 3 | 0.0266 | 48.1 | 49
CYP2B6 | 4 | -0.282 | 57.5 | 47.3
RNF139 | 1 | -0.335 | 112 | 88.9
RNF139 | 2 | -0.0324 | 50.5 | 49.4
RNF139 | 3 | -0.249 | 24.4 | 20.5
RNF139 | 4 | -0.275 | 97.3 | 80.4
TBL1XR1 | 1 | -0.236 | 119 | 101
TBL1XR1 | 2 | -0.106 | 24.7 | 22.9
TBL1XR1 | 3 | -0.764 | 100 | 59.1
TBL1XR1 | 4 | -0.345 | 44 | 34.7
ITGB5 | 1 | -0.372 | 69.8 | 54
ITGB5 | 2 | -0.192 | 78.1 | 68.4
ITGB5 | 3 | 0.163 | 54.2 | 60.7
ITGB5 | 4 | -0.524 | 67.6 | 47

Reformatted: entries from further up
target	reagent no.	log2 vehicle/camptothecin viability	viability with camptothecin (% of control)	viability without drug (% of control)
CYP2B6	2	-0.388	58.7	44.8
CYP2B6	3	0.0266	48.1	49

The listing continues:
target | reagent no. | log2 vehicle/camptothecin viability | viability with camptothecin (% of control) | viability without drug (% of control)
JAG2 | 1 | 0.389 | 55.7 | 73
JAG2 | 2 | -0.114 | 91.8 | 84.8
JAG2 | 3 | -0.111 | 112 | 103
JAG2 | 4 | -0.488 | 72.1 | 51.4
UBE2V1 | 1 | -0.595 | 59.2 | 39.2
UBE2V1 | 2 | 0.00369 | 55.6 | 55.7
UBE2V1 | 3 | 0.224 | 78 | 91.1
MAPK15 | 1 | 0.766 | 26.5 | 45
MAPK15 | 2 | -0.00826 | 80.7 | 80.3
MAPK15 | 3 | -0.518 | 128 | 89.7
MAPK15 | 4 | 0.434 | 30.9 | 41.8
OR6C2 | 1 | -0.392 | 111 | 84.9
OR6C2 | 2 | -0.0312 | 70.7 | 69.2
OR6C2 | 3 | -0.0681 | 49.7 | 47.4
OR6C2 | 4 | -0.176 | 95 | 84.1
